PubChem BioAssay AID662 (National Center for Advancing Translational Sciences (NCATS), 2007)
The list shows a part of the results. Shown are side measurements of this screen, not its main read-out; they come without a call. Compounds called inactive in the main read-out are mostly missing here. Potencies come from curve fits of mixed quality, noted in brackets.

Experiment: Cell signaling CRE-BLA (Fsk stim)
Conditions: CHO CRE-bla reporter (cAMP response element driving beta-lactamase), forskolin EC10, beta-lactamase ratio; measured here: 460 nm blue channel
Procedure, shortened: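 Modulation of forskolin-driven signalling is measured in CHO cells carrying a CRE-controlled beta-lactamase reporter. Cells are stimulated with EC10 NKH 477 in the presence of titrated compound for 3 h at 37 °C, then loaded with CCF4 for 2 h at room temperature.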

SMILES	AC50
CCOC(=O)C(C)Sc1nc2c(c(=O)[nH]c(=O)n2C)n1C/C=C(/C)Cl (centres undefined)	12.6 µM [rising, partial curve]
Cn1c(N)c(C(=O)COC(=O)Cc2ccsc2)c(=O)n(C)c1=O	0.126 µM [falling, single point]
COc1cccc2sc(Nc3nc(C)c(C(C)=O)s3)nc12	1.26 µM [rising, partial curve]
COCCCNc1oc(COc2ccc(Cl)cc2Cl)nc1C#N	10 µM [rising, single point]
CCOC(=O)c1ccc(OCC(=O)c2ccc(O)cc2O)cc1	3.16 µM [falling, full curve]
CN(C)Cc1ccccc1-c1cc(-n2ccnc2)ncn1	3.98 µM [rising, single point]
CCOC(=O)c1ccc(CNC(=O)c2cc3cccc(OC)c3oc2=O)o1	0.00316 µM [falling, full curve, poor fit]
Cn1c(=O)n(C)c2cc(NC(=O)c3cc4ccccc4o3)ccc21	10 µM [rising, partial curve]
COC(=O)c1cc(COC(=O)c2cccnc2SC)oc1C	20 µM [rising, single point]
Cc1cccc(NC(=O)CN(C)S(=O)(=O)c2ccc(Cl)cc2)n1	12.6 µM [rising, single point]
Cc1cccc(-c2nsc(SCC(=O)NCc3ccco3)n2)c1	20 µM [falling, single point]
O=C(C1CCN(S(=O)(=O)c2cccc3nsnc23)CC1)N1CCN(c2ccccc2F)CC1	25.1 µM [falling, single point]
Cc1cccc(CNc2ccnc(-c3cccc(NS(C)(=O)=O)c3)n2)c1	5.01 µM [rising, single point]
N#Cc1sc2nc3c(c(-c4cccnc4)c2c1N)CCC3	25.1 µM [rising, single point]
CCOC(=O)c1sc(NC(=O)CSc2nncs2)c(C(=O)OCC)c1C	2.51 µM [rising, full curve]
O=C1c2cccnc2C(Nc2ccc(S(=O)(=O)N3CCCCCC3)cc2)N1Cc1ccccc1 (centres undefined)	1.58 µM [rising, partial curve]
COc1cc2[nH]c3c(N4CCC(C(N)=O)CC4)ncnc3c2cc1OC	3.16 µM [falling, partial curve]
COc1ccccc1C1C(C(=O)c2cc3ccccc3o2)=C(O)C(=O)N1CCN1CCOCC1 (centres undefined)	10 µM [falling, partial curve]
CCn1c2ccccc2c2nnc(SCC(=O)OCN3C(=O)c4ccccc4C3=O)nc21	0.00398 µM [falling, full curve]
Cc1ccccc1-n1nnnc1SCC(N)=O	5.01 µM [falling, single point]
COc1cc(-c2nnc3sc(-c4ccco4)nn23)cc(OC)c1OC	1 µM [rising, full curve]
Cc1ccnc(SCC(=O)Nc2oc(-c3ccccc3)c(-c3ccccc3)c2C#N)n1	6.31 µM [rising, partial curve]
CC(=O)Nc1cccc(-c2cnc3ccccc3n2)c1	10 µM [rising, single point]

SMILES	AC50
Cc1nc(Nc2ccccc2)c2nc(-c3ccccc3)n(CCN3CCOCC3)c2n1	7.94 µM [rising, partial curve]
Cc1cc2c(c(=O)n1CCCn1ccnc1)C(c1ccco1)C(C#N)=C(N)O2 (centres undefined)	0.00316 µM [falling, full curve, poor fit]
O=C(CNC(=O)c1ccccc1F)NC1CC1	0.00398 µM [falling, full curve]
O=C(O)C1C2CCC(C2)C1C(=O)NCc1ccco1 (centres undefined)	0.0794 µM [falling, full curve, poor fit]
CC(Sc1nc2ccccc2o1)C(=O)O (centres undefined)	0.1 µM [falling, full curve, poor fit]
Cc1nn(-c2ccccc2)c2sc(C(=O)N3CCc4ccccc4C3)cc12	3.98 µM [rising, full curve]
Cc1nc(NC2CCCCC2)c2nc(-c3ccccc3)n(CCN(C)C)c2n1	10 µM [rising, single point]
N#Cc1cc2c(=O)n3ccccc3nc2n(CCCN2CCOCC2)c1=O	10 µM [rising, partial curve]
CCOC(=O)Nc1cc(=O)c2ccccc2o1	0.631 µM [rising, full curve]
Cn1c(=O)c(CCc2ccccc2)nc2cnc(N3CCNCC3)nc21	12.6 µM [rising, single point]
COC(=O)c1ccc(C(=O)OC)c(NC(=O)c2oc(C)nc2C)c1	0.251 µM [falling, partial curve, poor fit]
CCC(=O)Nc1cc(-c2nnc(OC)c3ccccc23)ccc1N1CCOCC1	15.8 µM [rising, single point]
Cc1cccc2cc(C#N)c(NCCNC(=O)NC3CCCCC3)nc12	0.794 µM [falling, partial curve, poor fit]
O=C1CC(c2cccs2)CC(O)=C1C=NCCN1CCNCC1 (centres undefined)	0.398 µM [rising, partial curve]
Cc1ccc(OCc2nnc(SCc3cc(=O)[nH]c4ccccc34)o2)cc1	12.6 µM [rising, single point]
COC(=O)c1cc(OC)c(OC)cc1NC(=O)Cn1nnc(-c2ccccc2Cl)n1	2.51 µM [rising, full curve]
CCOc1ccc(NC(=O)CN(C)c2nnnn2-c2ccccc2)cc1OCC	5.01 µM [falling, single point]
CCc1c(C)sc(NC(=O)c2cc(-c3cc(OC)ccc3OC)on2)c1C#N	1 µM [rising, single point]
CN(C)c1ccc(-c2cncnc2NCc2ccccc2)cc1	5.01 µM [rising, single point]
Cc1cc(/C=N/n2cnnc2)c(C)n1-c1cccc(Cl)c1	12.6 µM [rising, partial curve]
CCCCn1c(NC(=O)c2ccccc2)c(C#N)c2nc3ccccc3nc21	12.6 µM [rising, partial curve]
O=C(N1CCCCCC1)N1CCN(S(=O)(=O)N2CCOCC2)CC1	0.00316 µM [falling, full curve, poor fit]
O=C(c1cc2ncc(Br)cn2n1)N1CCOCC1	0.398 µM [falling, full curve]

SMILES	AC50
CCOCc1nnc(NC(=O)CSc2ccccc2)s1	3.98 µM [rising, single point]
CCOC(=O)c1c(-c2ccncc2)csc1N	15.8 µM [rising, partial curve]
CCc1cc(-c2[nH]ncc2-c2ccc3c(c2)OCO3)c(O)cc1O	2.51 µM [falling, full curve]
CN(Cc1ccco1)c1nc(-c2ccccc2Cl)nc2ccccc12	7.94 µM [rising, partial curve]
CCCCNC(=O)c1sc(=S)n2c1[nH]c(=O)c1ccccc12	0.01 µM [falling, full curve, poor fit]
CC1(C)C2CCC1(C)C(NC1=NCCC1)C2 (centres undefined)	3.16 µM [rising, single point]
Cc1ccccc1Cn1ccc(NC(=O)c2cnn3c(C(F)(F)F)cc(-c4ccco4)nc23)n1	7.94 µM [rising, partial curve, poor fit]
Cc1ccc(S(=O)(=O)Nc2cc(C(=O)O)ccc2N2CCCCC2)cc1	25.1 µM [rising, single point]
O=C(O)c1c2ccccc2cc2ccccc12	31.6 µM [falling, single point]
COc1ccc(OC)c(NC(=O)CN(c2ccc(OC)c(Cl)c2)S(C)(=O)=O)c1	2.51 µM [rising, full curve]
Cn1c(=O)c2c(SC3CCCC3)nc(C3CC3)nc2n(C)c1=O	2.51 µM [rising, partial curve]
CCOC(=O)c1ccc2c(c1)nc(SCC(=O)N1CCCCC1)n2CC	20 µM [rising, single point]
COc1ccccc1N1CCN(C(=O)c2ccc3nc(-c4ccco4)c(-c4ccco4)nc3c2)CC1	12.6 µM [rising, single point]
Cc1nc(C)c2c(=O)cc(-c3ccccc3)[nH]c2n1	10 µM [rising, partial curve]
N#Cc1ccccc1-c1ccc2ncnc(NCc3ccccc3)c2c1	2 µM [rising, full curve]
COc1cc(-c2nnc(SCC(=O)N(Cc3ccccc3)C(C)(C)C)o2)cc(OC)c1OC	2 µM [rising, full curve, poor fit]
C/C(Cl)=C\Cn1c(=O)c2c(nc3n2CCS3)n(C)c1=O	10 µM [rising, partial curve]
COc1cc2cc(C(c3nnnn3C(C)(C)C)N3CCc4ccccc4C3)c(=O)[nH]c2cc1OC (centres undefined)	12.6 µM [rising, partial curve]
O=C(CN1CCN(c2ccccn2)CC1)Nc1cc(C(F)(F)F)ccc1Cl	1 µM [falling, partial curve]
Cc1ccc(CNC(=O)CNS(=O)(=O)c2cccc3nsnc23)cc1	20 µM [rising, single point]
N#Cc1c(N)[nH]c(=S)c(C#N)c1-c1ccccc1	25.1 µM [falling, single point]
Cc1cc(C)c2c(=O)[nH]c(SCC(=O)Nc3ccccc3)nc2n1	5.01 µM [rising, partial curve]
O=C(NC1CC1)c1ccc(COc2ccc(F)cc2)o1	0.126 µM [falling, single point]

Reprinted from above, twelve compounds:
SMILES	AC50
CCc1cc(-c2[nH]ncc2-c2ccc3c(c2)OCO3)c(O)cc1O	2.51 µM [falling, full curve]
CN(Cc1ccco1)c1nc(-c2ccccc2Cl)nc2ccccc12	7.94 µM [rising, partial curve]
CCCCNC(=O)c1sc(=S)n2c1[nH]c(=O)c1ccccc12	0.01 µM [falling, full curve, poor fit]
CC1(C)C2CCC1(C)C(NC1=NCCC1)C2 (centres undefined)	3.16 µM [rising, single point]
Cc1ccccc1Cn1ccc(NC(=O)c2cnn3c(C(F)(F)F)cc(-c4ccco4)nc23)n1	7.94 µM [rising, partial curve, poor fit]
Cc1ccc(S(=O)(=O)Nc2cc(C(=O)O)ccc2N2CCCCC2)cc1	25.1 µM [rising, single point]
O=C(O)c1c2ccccc2cc2ccccc12	31.6 µM [falling, single point]
COc1ccc(OC)c(NC(=O)CN(c2ccc(OC)c(Cl)c2)S(C)(=O)=O)c1	2.51 µM [rising, full curve]
Cn1c(=O)c2c(SC3CCCC3)nc(C3CC3)nc2n(C)c1=O	2.51 µM [rising, partial curve]
CCOC(=O)c1ccc2c(c1)nc(SCC(=O)N1CCCCC1)n2CC	20 µM [rising, single point]
COc1ccccc1N1CCN(C(=O)c2ccc3nc(-c4ccco4)c(-c4ccco4)nc3c2)CC1	12.6 µM [rising, single point]
Cc1nc(C)c2c(=O)cc(-c3ccccc3)[nH]c2n1	10 µM [rising, partial curve]
